Common to all, as to experiment: drug sensitivity score (DSS2, cytotoxicity, CellTox Green); higher = more cytotoxic / more sensitive; extreme values may be limits of the assay
Common to all, as to settings: 72 h; doses 0.5, 1, 5 µM

Assay [1] relates to OVCAR3.
The subject of assay [2] is OVCAR4.
In assay [3] the test system is Kuramochi.

Structures are written as SMILES. Counter-ions that a name gives are not always drawn. Some well-known active drugs show little effect in this data set, so a weak value is uncertain.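 OVCAR3, described as chemosensitive, is one of three high-grade serous ovarian cancer lines that differ in chemosensitivity. Toxicity was scaled from DMSO vehicle wells to fully lysed wells; scores came from fitted multi-dose response curves, and the authors treated scores above 5 as indicating drug sensitivity.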

For `CCS(=O)(=O)N1CC(CC#N)(n2cc(-c3ncnc4[nH]ccc34)cn2)C1` [Baricitinib], the drug sensitivity score in assay [1], in assay [2] and in assay [3] was 0 DSS throughout.

For `NNC(=O)c1ccncc1` [Isoniazid], the drug sensitivity score in assay [1], in assay [2] and in assay [3] was 0 DSS in each case.

Take `C#CCC(Cc1cnc2nc(N)nc(N)c2n1)c1ccc(C(=O)N[C@@H](CCC(=O)O)C(=O)O)cc1` (stereo partly drawn) [Pralatrexate]: the drug sensitivity score in assay [1], in assay [2] and in assay [3] was 0 DSS in each case.

Turning to `C=C[C@]1(C)CC[C@@H](C(=C)C)C[C@H]1C(=C)C` [β-Elemene], the drug sensitivity score in assay [1] was 0.7 DSS; in assay [2], 0 DSS; in assay [3], 0 DSS.

As for `O=c1[nH]c2ccccc2n1C1CCN(CCCC(c2ccc(F)cc2)c2ccc(F)cc2)CC1` [Pimozide], the figures for the drug sensitivity score in assay [1], in assay [2] and in assay [3] were 0 DSS, 0.1 DSS and 0 DSS, respectively.

In the case of `C[C@@H]1CCN(C(=O)CC#N)C[C@@H]1N(C)c1ncnc2[nH]ccc12` [Tofacitinib (citrate)], the drug sensitivity score in assay [1], in assay [2] and in assay [3] was 0 DSS each time.

For the compound `CCN(CC)CC(=O)Nc1c(C)cccc1C` [Lidocaine], the values for the drug sensitivity score in assay [1], in assay [2] and in assay [3] were 1 DSS, 2.2 DSS and 0 DSS, respectively.

As for `Cn1c(=O)c2nc[nH]c2n(C)c1=O` [Theophylline], the results for the drug sensitivity score in assay [1], in assay [2] and in assay [3] were 0 DSS, 0.4 DSS and 0 DSS, respectively.

`O=C1NCCN1CCN1CCC(c2cn(-c3ccc(F)cc3)c3ccc(Cl)cc23)CC1` [Sertindole]: the drug sensitivity score in assay [1], in assay [2] and in assay [3] was 0 DSS each time.

Regarding `Cc1ccc(NC(=O)C2(c3ccc4c(c3)OC(F)(F)O4)CC2)nc1-c1cccc(C(=O)O)c1` [Lumacaftor], the drug sensitivity score in assay [1], in assay [2] and in assay [3] was 0 DSS throughout.

On to `C[C@@H]1CC[C@]2(NC1)O[C@H]1C[C@H]3[C@@H]4CC=C5C[C@@H](O)CC[C@]5(C)[C@H]4CC[C@]3(C)[C@H]1[C@@H]2C` [Solasodine], for which the drug sensitivity score in assay [1], in assay [2] and in assay [3] was 0 DSS throughout.

`C#Cc1cccc(Nc2ncnc3cc(OCCOC)c(OCCOC)cc23)c1` [Erlotinib]: the drug sensitivity score in assay [1], in assay [2] and in assay [3] was 0 DSS each time.

In the case of `COc1ccc2c(c1)c(CC(=O)O)c(C)n2C(=O)c1ccc(Cl)cc1` [Indomethacin (sodium hydrate)], the drug sensitivity score in assay [1], in assay [2] and in assay [3] was 0 DSS in each case.

For `COC1=C(OC)C(=O)C(CCCCCCCCCCO)=C(C)C1=O` [Idebenone], the drug sensitivity score in assay [1], in assay [2] and in assay [3] was 0 DSS each time.

Turning to `Cc1nc(Nc2ncc(C(=O)Nc3c(C)cccc3Cl)s2)cc(N2CCN(CCO)CC2)n1` [Dasatinib (hydrochloride)], the values for the drug sensitivity score in assay [1], in assay [2] and in assay [3] were 0.9 DSS, 0 DSS and 1.5 DSS, respectively.

Consider `O=C(O)[C@@H]1NC2(CCCCC2)[C@@]2(C(=O)Nc3cc(Cl)ccc32)[C@H]1c1cccc(Cl)c1F` [MDM2-IN-1], for which the drug sensitivity score in assay [1], in assay [2] and in assay [3] was 0 DSS in each case.

With `CC(=O)Nc1ccc(NC(=S)NC(=O)c2ccc(C(C)(C)C)cc2)cc1` [Tenovin-1], the drug sensitivity score in assay [1], in assay [2] and in assay [3] was 0 DSS throughout.

Turning to `COCC1(CO)C(=O)C2CCN1CC2` (stereo not drawn) [Eprenetapopt], the drug sensitivity score in assay [1], in assay [2] and in assay [3] was 0 DSS each time.

On to `CCOc1cc(C(C)(C)C)ccc1C1=N[C@@](C)(c2ccc(Cl)cc2)[C@@](C)(c2ccc(Cl)cc2)N1C(=O)N1CCN(CCCS(C)(=O)=O)CC1` [RG7112], for which the drug sensitivity score in assay [1], in assay [2] and in assay [3] was 0 DSS throughout.

For the compound `N[C@@H](CC(=O)N1CCn2c(nnc2C(F)(F)F)C1)Cc1cc(F)c(F)cc1F` [Sitagliptin (phosphate monohydrate)], the drug sensitivity score in assay [1], in assay [2] and in assay [3] was 0 DSS in each case.

On to `CN(C)CCOc1ccc(/C(=C(/CCCl)c2ccccc2)c2ccccc2)cc1` [Toremifene (citrate)], for which the drug sensitivity score in assay [1], in assay [2] and in assay [3] was 0 DSS each time.

With `CCCCc1nc(C)c(CC(=S)N(C)C)c(=O)n1Cc1ccc(-c2ccccc2-c2nnn[nH]2)cc1` [Fimasartan], the drug sensitivity score in assay [1], in assay [2] and in assay [3] was 0 DSS in each case.

Turning to `C[N+](C)(C)CCOP(=O)(O)OP(=O)([O-])OC[C@H]1O[C@@H](n2ccc(N)nc2=O)[C@H](O)[C@@H]1O` [Citicoline (sodium)], the drug sensitivity score in assay [1], in assay [2] and in assay [3] was 0 DSS throughout.

As to `CC(=O)[C@H]1CC[C@H]2[C@@H]3CC=C4C[C@@H](O)CC[C@]4(C)[C@H]3CC[C@]12C` [Pregnenolone], the drug sensitivity score in assay [1], in assay [2] and in assay [3] was 0 DSS each time.

As to `Cn1c(CCCC(=O)O)nc2cc(N(CCCl)CCCl)ccc21` [Bendamustine (hydrochloride)], the drug sensitivity score in assay [1], in assay [2] and in assay [3] was 0 DSS each time.

For the compound `N#Cc1ccc(C(c2ccc(C#N)cc2)n2cncn2)cc1` [Letrozole], the drug sensitivity score in assay [1], in assay [2] and in assay [3] was 0 DSS in each case.

As to `Nc1nc(NC2CC2)c2ncn([C@H]3C=C[C@@H](CO)C3)c2n1` [Abacavir (sulfate)], the drug sensitivity score in assay [1] came out at 0.1 DSS; in assay [2], 0 DSS; in assay [3] it was 0 DSS.

As to `CCCCCCc1ccc(O)cc1O` [Hexylresorcinol], the drug sensitivity score in assay [1] is 1 DSS; in assay [2] it was 1.2 DSS; in assay [3], 0.3 DSS.

On to `Cc1ccc(Nc2nccc(N(C)c3ccc4c(C)n(C)nc4c3)n2)cc1S(N)(=O)=O` [Pazopanib], for which the drug sensitivity score in assay [1], in assay [2] and in assay [3] was 0 DSS throughout.

For `C/C(=C\c1csc(C)n1)[C@@H]1C[C@@H]2O[C@]2(C)CCC[C@H](C)[C@H](O)[C@@H](C)C(=O)C(C)(C)[C@@H](O)CC(=O)N1` [Ixabepilone], the drug sensitivity score in assay [1] stood at 1 DSS; in assay [2], 0 DSS; in assay [3], 2 DSS.

For `COc1ccnc(C[S+]([O-])c2nc3cc(OC(F)F)ccc3[nH]2)c1OC` (stereo not drawn) [Pantoprazole (sodium hydrate)], the drug sensitivity score in assay [1], in assay [2] and in assay [3] was 0 DSS throughout.

On to `CC(=O)Nc1cccc(-n2c(=O)n(C3CC3)c(=O)c3c(Nc4ccc(I)cc4F)n(C)c(=O)c(C)c32)c1` [Trametinib], for which the drug sensitivity score in assay [1], in assay [2] and in assay [3] was 0 DSS each time.

For the compound `COC(=O)CCc1ccc(OCC(O)CNC(C)C)cc1` (stereo not drawn) [Esmolol (hydrochloride)], the drug sensitivity score in assay [1], in assay [2] and in assay [3] was 0 DSS each time.

For the compound `COc1ccc2[nH]c3c(-c4cccc5ccccc45)nccc3c2c1` [SP-141], the drug sensitivity score is 8.6 DSS in assay [1], 0.7 DSS in assay [2] and 2 DSS in assay [3].

As to `O=C1OC(C(O)CO)C([O-])=C1O.[Na+]` [L-Ascorbic acid (sodium salt)], the drug sensitivity score in assay [1], in assay [2] and in assay [3] was 0 DSS in each case.

As to `COc1ccc2c(c1)c(CC(=O)O)c(C)n2C(=O)c1ccc(Cl)cc1` [Indomethacin], the drug sensitivity score in assay [1], in assay [2] and in assay [3] was 0 DSS in each case.

For the compound `CC(C)c1cc2c(cc1S(=O)(=O)O)[C@@]1(C)CCC[C@@](C)(C(=O)O)[C@@H]1CC2` [Ecabet (sodium)], the drug sensitivity score in assay [1], in assay [2] and in assay [3] was 0 DSS throughout.

With `O=C1[C@H](CC[C@H](O)c2ccc(F)cc2)[C@@H](c2ccc(O)cc2)N1c1ccc(F)cc1` [Ezetimibe], the drug sensitivity score in assay [1], in assay [2] and in assay [3] was 0 DSS in each case.

On to `Cc1nc(=O)c2cc(CN(C)c3ccc(C(=O)N[C@@H](CCC(=O)O)C(=O)O)s3)ccc2[nH]1` [Raltitrexed], for which the drug sensitivity score in assay [1], in assay [2] and in assay [3] was 0 DSS in each case.

As to `N[C@@H](CC(=O)N1CCn2c(nnc2C(F)(F)F)C1)Cc1cc(F)c(F)cc1F` [Sitagliptin], the drug sensitivity score in assay [1], in assay [2] and in assay [3] was 0 DSS throughout.

Regarding `C[C@@H]1CC(=O)NN=C1c1ccc(NN=C(C#N)C#N)cc1` [Levosimendan], the drug sensitivity score in assay [1], in assay [2] and in assay [3] was 0 DSS in each case.

The record behind these values is the supplement of paper PMC12593923.
